This is one part of the list.
Compound: Cc1cc(ccc1-c1ccccc1)C(=O)N1CCCN(CC1)C(=O)CCl [compound 10]
Assay: probe-labelled cysteine peptide fold change vs DMSO (competition) (log2 fold change); higher = less target engagement (more negative = stronger competition)
Details: THP-1, incubation time: 4 h
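Note: competitive profiling in live THP-1 cells: cysteine peptides tagged with an iodoacetamide desthiobiotin (IA-DTB) probe, intensity after compound treatment relative to DMSO-treated cells.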

By UniProt entry, the sequences of proteins in these tests, tags left out. Where a name states a change or a piece, a line headed by the entry shows the natural chain unless it says otherwise.
UniProt Q15527: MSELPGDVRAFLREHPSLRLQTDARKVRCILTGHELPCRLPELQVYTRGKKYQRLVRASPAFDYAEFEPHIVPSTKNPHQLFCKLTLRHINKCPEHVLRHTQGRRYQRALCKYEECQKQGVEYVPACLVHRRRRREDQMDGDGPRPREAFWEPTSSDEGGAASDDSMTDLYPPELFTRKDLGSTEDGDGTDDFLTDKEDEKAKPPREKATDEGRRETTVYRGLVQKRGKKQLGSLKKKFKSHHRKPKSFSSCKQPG
UniProt Q15022: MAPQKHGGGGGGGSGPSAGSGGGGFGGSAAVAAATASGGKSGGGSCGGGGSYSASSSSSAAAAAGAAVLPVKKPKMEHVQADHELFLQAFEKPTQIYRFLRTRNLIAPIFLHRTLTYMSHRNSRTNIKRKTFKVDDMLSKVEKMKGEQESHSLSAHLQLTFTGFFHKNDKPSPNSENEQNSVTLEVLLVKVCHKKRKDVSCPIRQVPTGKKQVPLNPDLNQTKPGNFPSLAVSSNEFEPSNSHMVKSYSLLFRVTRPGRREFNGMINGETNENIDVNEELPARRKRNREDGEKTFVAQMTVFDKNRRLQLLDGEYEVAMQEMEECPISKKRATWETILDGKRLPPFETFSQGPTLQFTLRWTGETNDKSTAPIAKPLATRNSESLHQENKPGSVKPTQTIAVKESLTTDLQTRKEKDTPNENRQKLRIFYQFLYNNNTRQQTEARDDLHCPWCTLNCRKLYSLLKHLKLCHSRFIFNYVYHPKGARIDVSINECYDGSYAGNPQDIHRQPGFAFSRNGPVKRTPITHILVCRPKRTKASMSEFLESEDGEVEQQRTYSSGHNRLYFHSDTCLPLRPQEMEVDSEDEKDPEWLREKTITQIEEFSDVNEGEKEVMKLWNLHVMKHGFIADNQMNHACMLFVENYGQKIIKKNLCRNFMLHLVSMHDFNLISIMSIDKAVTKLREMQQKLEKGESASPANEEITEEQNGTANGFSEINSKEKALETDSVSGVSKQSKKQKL
UniProt P42226: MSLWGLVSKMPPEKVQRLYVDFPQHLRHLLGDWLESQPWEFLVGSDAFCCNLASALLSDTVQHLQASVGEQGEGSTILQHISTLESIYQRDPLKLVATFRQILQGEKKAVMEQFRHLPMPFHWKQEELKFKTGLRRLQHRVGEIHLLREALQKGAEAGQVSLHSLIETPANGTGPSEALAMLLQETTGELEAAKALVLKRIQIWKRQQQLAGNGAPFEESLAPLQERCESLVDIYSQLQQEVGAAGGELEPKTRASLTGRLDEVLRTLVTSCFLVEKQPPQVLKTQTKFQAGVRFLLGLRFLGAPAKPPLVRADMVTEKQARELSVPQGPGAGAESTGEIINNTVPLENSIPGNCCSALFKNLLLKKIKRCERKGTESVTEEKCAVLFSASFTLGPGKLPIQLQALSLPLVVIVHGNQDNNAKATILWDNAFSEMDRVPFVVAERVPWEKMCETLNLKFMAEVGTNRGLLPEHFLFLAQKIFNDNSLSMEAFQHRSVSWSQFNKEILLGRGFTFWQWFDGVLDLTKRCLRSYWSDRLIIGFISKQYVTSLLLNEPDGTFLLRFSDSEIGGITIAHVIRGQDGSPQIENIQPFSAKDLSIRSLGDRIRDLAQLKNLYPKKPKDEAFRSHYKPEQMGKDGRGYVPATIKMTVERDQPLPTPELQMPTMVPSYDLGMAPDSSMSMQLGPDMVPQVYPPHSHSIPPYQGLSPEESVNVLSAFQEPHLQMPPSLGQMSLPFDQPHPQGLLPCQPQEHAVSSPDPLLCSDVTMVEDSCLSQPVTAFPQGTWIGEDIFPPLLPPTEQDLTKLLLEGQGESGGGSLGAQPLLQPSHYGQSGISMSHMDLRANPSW
UniProt O94768: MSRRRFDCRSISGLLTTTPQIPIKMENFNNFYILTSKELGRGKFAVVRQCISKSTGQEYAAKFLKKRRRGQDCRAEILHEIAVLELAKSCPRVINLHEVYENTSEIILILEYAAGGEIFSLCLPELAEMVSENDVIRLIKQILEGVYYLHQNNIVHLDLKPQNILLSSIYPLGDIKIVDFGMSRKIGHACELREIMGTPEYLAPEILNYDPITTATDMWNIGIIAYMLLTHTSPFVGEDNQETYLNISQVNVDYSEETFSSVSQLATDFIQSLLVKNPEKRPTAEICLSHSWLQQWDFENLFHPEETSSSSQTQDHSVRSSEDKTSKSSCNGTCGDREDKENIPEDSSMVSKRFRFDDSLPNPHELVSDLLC
UniProt Q07955, whole entry, looked up: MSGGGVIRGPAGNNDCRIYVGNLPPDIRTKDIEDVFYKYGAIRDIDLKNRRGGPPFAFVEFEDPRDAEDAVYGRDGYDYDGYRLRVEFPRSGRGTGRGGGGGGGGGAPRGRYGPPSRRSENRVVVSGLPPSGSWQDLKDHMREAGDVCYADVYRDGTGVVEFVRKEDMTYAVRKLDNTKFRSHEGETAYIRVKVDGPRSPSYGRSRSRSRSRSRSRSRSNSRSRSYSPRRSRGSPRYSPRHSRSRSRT
UniProt Q16629: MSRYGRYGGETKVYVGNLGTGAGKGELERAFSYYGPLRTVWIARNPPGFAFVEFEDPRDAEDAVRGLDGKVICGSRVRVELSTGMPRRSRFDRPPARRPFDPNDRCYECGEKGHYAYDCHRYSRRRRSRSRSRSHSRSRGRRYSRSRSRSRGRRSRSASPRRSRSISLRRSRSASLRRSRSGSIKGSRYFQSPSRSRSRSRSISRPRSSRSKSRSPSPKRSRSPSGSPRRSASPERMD
UniProt Q9Y5Y6: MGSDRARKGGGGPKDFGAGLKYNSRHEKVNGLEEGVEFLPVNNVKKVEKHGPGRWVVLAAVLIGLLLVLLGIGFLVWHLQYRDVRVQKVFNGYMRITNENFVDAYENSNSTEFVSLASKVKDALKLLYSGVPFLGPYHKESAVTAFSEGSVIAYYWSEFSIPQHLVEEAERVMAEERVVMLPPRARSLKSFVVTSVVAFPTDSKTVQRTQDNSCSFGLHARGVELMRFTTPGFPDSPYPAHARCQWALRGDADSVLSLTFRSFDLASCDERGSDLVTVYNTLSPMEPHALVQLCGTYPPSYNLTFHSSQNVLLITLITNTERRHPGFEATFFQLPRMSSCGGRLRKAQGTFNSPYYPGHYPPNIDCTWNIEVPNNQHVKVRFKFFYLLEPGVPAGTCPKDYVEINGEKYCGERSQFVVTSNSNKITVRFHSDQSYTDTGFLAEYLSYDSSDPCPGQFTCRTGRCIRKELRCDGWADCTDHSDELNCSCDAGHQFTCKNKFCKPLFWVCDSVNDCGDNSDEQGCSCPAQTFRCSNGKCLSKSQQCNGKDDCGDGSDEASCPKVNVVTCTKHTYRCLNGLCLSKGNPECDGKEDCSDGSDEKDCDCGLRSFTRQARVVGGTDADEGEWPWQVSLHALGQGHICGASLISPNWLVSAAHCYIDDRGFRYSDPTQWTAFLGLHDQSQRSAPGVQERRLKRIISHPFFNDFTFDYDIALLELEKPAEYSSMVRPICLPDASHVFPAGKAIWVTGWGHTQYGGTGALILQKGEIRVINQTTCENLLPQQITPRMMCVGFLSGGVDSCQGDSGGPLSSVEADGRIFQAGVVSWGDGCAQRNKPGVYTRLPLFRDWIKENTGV
UniProt P40763, whole entry, looked up: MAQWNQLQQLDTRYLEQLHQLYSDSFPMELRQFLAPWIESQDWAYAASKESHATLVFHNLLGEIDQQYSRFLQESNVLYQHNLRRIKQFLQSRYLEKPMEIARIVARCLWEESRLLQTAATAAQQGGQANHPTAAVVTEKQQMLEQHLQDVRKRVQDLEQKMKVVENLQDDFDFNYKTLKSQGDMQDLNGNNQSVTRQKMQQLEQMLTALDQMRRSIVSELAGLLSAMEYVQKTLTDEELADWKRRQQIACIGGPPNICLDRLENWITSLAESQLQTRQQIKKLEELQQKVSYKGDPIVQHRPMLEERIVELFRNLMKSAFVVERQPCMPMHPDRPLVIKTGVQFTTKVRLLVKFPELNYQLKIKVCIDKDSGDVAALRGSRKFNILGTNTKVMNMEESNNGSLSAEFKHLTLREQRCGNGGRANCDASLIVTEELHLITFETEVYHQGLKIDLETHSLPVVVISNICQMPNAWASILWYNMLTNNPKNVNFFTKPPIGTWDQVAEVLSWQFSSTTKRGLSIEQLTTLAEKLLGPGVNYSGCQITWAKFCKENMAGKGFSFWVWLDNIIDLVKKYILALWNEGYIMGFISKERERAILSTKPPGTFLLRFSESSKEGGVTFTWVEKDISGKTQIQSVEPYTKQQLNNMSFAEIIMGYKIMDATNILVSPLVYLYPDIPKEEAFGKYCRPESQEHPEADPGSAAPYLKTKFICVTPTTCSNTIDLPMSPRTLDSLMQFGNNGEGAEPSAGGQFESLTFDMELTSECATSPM
UniProt P52630: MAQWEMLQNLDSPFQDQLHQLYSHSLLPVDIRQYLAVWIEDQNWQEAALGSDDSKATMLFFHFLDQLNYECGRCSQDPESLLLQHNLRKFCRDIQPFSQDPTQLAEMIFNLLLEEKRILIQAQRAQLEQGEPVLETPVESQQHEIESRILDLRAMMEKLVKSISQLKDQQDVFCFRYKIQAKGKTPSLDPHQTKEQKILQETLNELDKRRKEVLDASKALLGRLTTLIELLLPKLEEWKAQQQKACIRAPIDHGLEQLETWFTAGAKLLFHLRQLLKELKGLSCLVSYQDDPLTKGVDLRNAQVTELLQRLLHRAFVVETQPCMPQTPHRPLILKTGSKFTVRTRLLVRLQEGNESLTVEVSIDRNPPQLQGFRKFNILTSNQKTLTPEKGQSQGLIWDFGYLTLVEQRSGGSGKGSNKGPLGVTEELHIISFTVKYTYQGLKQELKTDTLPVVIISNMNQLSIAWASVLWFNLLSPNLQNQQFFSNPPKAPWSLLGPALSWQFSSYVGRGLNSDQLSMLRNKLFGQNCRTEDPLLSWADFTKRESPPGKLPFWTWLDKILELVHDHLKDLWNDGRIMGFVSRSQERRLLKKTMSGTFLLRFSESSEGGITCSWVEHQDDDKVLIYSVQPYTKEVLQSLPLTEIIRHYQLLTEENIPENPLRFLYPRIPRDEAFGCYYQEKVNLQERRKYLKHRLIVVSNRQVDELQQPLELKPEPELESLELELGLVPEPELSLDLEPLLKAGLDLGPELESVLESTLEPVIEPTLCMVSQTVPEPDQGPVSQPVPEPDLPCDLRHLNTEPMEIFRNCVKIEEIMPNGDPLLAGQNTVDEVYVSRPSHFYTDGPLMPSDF
UniProt Q8NFX7: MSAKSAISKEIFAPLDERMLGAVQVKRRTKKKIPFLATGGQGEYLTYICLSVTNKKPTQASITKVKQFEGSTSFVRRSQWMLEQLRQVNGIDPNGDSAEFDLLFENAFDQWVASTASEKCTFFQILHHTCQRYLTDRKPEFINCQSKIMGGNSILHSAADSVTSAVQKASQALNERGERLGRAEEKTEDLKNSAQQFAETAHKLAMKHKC
UniProt O94804: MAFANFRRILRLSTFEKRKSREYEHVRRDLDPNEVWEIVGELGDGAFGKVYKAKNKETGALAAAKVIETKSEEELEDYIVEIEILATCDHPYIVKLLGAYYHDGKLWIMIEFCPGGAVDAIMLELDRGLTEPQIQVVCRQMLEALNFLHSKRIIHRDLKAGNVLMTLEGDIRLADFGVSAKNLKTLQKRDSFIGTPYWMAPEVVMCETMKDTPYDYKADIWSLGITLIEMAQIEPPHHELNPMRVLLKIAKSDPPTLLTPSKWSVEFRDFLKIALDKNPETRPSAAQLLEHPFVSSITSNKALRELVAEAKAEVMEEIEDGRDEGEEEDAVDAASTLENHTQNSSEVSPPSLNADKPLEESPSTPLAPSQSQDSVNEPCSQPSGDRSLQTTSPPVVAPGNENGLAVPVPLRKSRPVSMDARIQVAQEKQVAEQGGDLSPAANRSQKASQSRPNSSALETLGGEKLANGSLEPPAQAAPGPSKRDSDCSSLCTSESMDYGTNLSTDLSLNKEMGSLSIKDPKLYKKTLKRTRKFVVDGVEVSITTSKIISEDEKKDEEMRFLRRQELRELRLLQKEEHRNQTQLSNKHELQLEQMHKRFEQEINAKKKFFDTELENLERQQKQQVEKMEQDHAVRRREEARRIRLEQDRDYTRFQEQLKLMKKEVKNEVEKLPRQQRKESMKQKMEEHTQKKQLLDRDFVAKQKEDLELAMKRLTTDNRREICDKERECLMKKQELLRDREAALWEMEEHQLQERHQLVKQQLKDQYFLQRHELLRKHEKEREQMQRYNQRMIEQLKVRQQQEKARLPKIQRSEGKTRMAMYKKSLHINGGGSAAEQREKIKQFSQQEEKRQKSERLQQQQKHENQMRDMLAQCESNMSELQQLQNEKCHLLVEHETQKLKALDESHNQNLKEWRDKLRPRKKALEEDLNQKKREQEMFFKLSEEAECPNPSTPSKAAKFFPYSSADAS

Row | Target | probe-labelled cysteine peptide fold change (10 µM) | probe-labelled cysteine peptide fold change (50 µM)
1 | SURF2_Q15527_29_CILTGHELPCR (UniProt Q15527) | 0.276 | 0.153
2 | STBD1_O95210_108_EVCDNSR (UniProt O95210) | -0.201 | -0.183
3 | STUB1_Q9UNE7_244_EPCITPSGITYDR (UniProt Q9UNE7) | -0.0733 | -0.112
4 | SUZ12_Q15022_325_LQLLDGEYEVAMQEMEECPISK (UniProt Q15022) | -0.129 | -0.99
5 | STRIP1_Q5VSL9_769_LNDDWAYGNDLDARPWDFQAEECALR (UniProt Q5VSL9) | -0.0806 | 0.0938
6 | STAT6_P42226_452_MCETLNLK (UniProt P42226) | 0.0597 | 0.014
7 | SUPT6H_Q7KZ85_939_IQDPLIEFAQVCSSDEDILCLK (UniProt Q7KZ85) | 0.202 | 0.0981
8 | STK17B_O94768_190_KIGHACELR (UniProt O94768) | 0.158 | -0.0266
9 | SRSF1_Q07955_16_GPAGNNDCR (UniProt Q07955) | -0.0645 | 0.315
10 | STAT1_P42224_492_NLSFFLTPPCAR (UniProt P42224) | 0.119 | -0.594
11 | STK24_Q9Y6E0_375_RPFSQCLSTIISPLFAELK (UniProt Q9Y6E0) | -0.203 | -0.378
12 | SSX2IP_Q9Y2D8_529_KPHSVSNGSPVCMSK (UniProt Q9Y2D8) | -0.304 | -0.849
13 | SRSF7_Q16629_106+109_CYECGEK (UniProt Q16629) | 0.091 | 0.219
14 | SURF2_Q15527_29+38_CILTGHELPCR (UniProt Q15527) | 0.0902 | -0.0729
15 | SURF6_O75683_189_KAEEATEAQEVVEATPEGACTEPR (UniProt O75683) | -0.0912 | -0.433
16 | SUPT6H_Q7KZ85_960_EELLNALYCEFINR (UniProt Q7KZ85) | 0.268 | 0.39
17 | STX12_Q86Y82_29_DFSSIIQTCSGNIQR (UniProt Q86Y82) | 0.143 | 0.0626
18 | SSH3_Q8TE77_434_QYECSLEQALR (UniProt Q8TE77) | -0.058 | -0.0996
19 | ST14_Q9Y5Y6_214_TQDNSCSFGLHAR (UniProt Q9Y5Y6) | -0.00476 | -0.427
20 | STXBP2_Q15833_45_ILSSCCK (UniProt Q15833) | 0.0482 | -0.576

Row | Target | probe-labelled cysteine peptide fold change (10 µM) | probe-labelled cysteine peptide fold change (50 µM)
21 | STAT6_P42226_272_TLVTSCFLVEK (UniProt P42226) | 0.00513 | 0.0177
22 | ST14_Q9Y5Y6_602+604_DCDCGLR (UniProt Q9Y5Y6) | -0.217 | -1.07
23 | SUGP2_Q8IX01_476_TLSNPLDLALALETTNSLCR (UniProt Q8IX01) | 0.0793 | 0.43
24 | STX4_Q12846_141_CNSMQSEYR (UniProt Q12846) | 0.00952 | -0.179
25 | ST14_Q9Y5Y6_567_VNVVTCTK (UniProt Q9Y5Y6) | -0.153 | -0.788
26 | STAT3_P40763_426_ANCDASLIVTEELHLITFETEVYHQGLK (UniProt P40763) | 0.319 | 0.388
27 | STXBP2_Q15833_158_EIHLAFLPYEAQVFSLDAPHSTYNLYCPFRAEER (UniProt Q15833) | -0.0353 | -0.613
28 | SSB_P05455_245_FSGDLDDQTCR (UniProt P05455) | 0.0779 | 0.184
29 | STAT2_P52630_676_DEAFGCYYQEK (UniProt P52630) | -0.0339 | 0.128
30 | SYK_P43405_593+597_MGCPAGCPR (UniProt P43405) | 0.00642 | -0.398
31 | SUPT5H_O00267_638_LVENGGMFVCK (UniProt O00267) | -0.125 | 0.306
32 | STXBP6_Q8NFX7_144_KPEFINCQSK (UniProt Q8NFX7) | -0.284 | -0.157
33 | SWAP70_Q9UH65_40_VLSHNLCTVLK (UniProt Q9UH65) | 0.0511 | -0.000772
34 | SUPT6H_Q7KZ85_796_DHPVFCALVNGEGEVTDFLR (UniProt Q7KZ85) | 0.214 | 0.374
35 | STX16_O14662_150_ACSEQEGR (UniProt O14662) | -0.0416 | -0.105
36 | STK10_O94804_873_DMLAQCESNMSELQQLQNEK (UniProt O94804) | -0.178 | -0.0686
37 | STAT2_P52630_174_DQQDVFCFR (UniProt P52630) | 0.0734 | -0.0859
38 | SUZ12_Q15022_531_RTPITHILVCR (UniProt Q15022) | -0.113 | -0.00139
39 | SUPT6H_Q7KZ85_990_AIAHPYSQALIQYVCGLGPR (UniProt Q7KZ85) | 0.0872 | 0.126

Source: the supplement of paper PMC12067093, “Discovery and optimisation of a covalent ligand for TRIM25 and its application to targeted protein ubiquitination” (Chemical Science, 2025)
